Test results from US12246034B2, “Animal feed supplement and method” (CAN TECHNOLOGIES, INC., priority 2014, dated 2025).
Read-outs that look alike come from different tables or passages of the source.

System: sows
Details: sow
Procedure: A trial was conducted at the Sterksel Research farm in the Netherlands (part of Wageningen University Research). A total of 207 sows were used in the trial allocated based on parity over 6 treatments (n=34). […] Calcium levels were the same in all diets.
Until farrowing, sows received a fixed amount of feed (3.25 kg from day 107-113 and 2.7 kg/sow/day from day 113 till farrowing). During lactation the sows were fed the diets according to a step-up feeding schedule applied (increasing with 0.5 kg/sow/day) the same over the 6 treatments aiming at a peak intake of 7.5 kg/sow/day. Piglets were weaned from the sow at 27 days of age. Performance of sows (e.g. weight, backfat, piglets born alive, stillborn piglets, mortality of piglets) and piglets (e.g. weight at birth, after 48 hours and weaning) was measured on all sows and litters. A subset of sows (19-20 per treatment) was examined more in detail to get insight in the possible mode of action of nitrate. On this subset, blood samples were collected within 4 minutes after birth from 2 piglets out of every 4 piglets born. Blood gasses of umbilical cord blood were analyzed using the i-STAT handheld (Abbott). Vitality of piglets was scored within 30 seconds after birth according to Baxter et al. (2008) with 1 being the lowest and 4 being the highest score for vitality.

[1] = 0.03% nitrate in lactation diet
[2] = 0.06% nitrate in lactation diet
[3] = 0.09% nitrate in lactation diet
[4] = 0.12% nitrate in lactation diet
[5] = 0.15% nitrate in lactation diet

Compound: O=[N+]([O-])O [Nitrate, nitrate]
- % backfat change [1]: −17.0%
- % weight change farrow - wean [1]: −5.4%
- Backfat at weaning [1]: 12.8 mm
- Body weight at weaning [1]: 228.5 kg
- body weight after farrowing [1]: 241.6 kg
- % backfat change [2]: −19.4%
- % weight change farrow - wean [2]: −5.0%
- Backfat at weaning [2]: 12.6 mm
- Body weight at weaning [2]: 228.1 kg
- body weight after farrowing [2]: 240.7 kg
- % backfat change [3]: −21.6%
- % weight change farrow - wean [3]: −5.9%
- Backfat at weaning [3]: 12.2 mm
- Body weight at weaning [3]: 226.6 kg
- body weight after farrowing [3]: 240.8 kg
- % backfat change [4]: −18.2%
- % weight change farrow - wean [4]: −6.3%
- Backfat at weaning [4]: 12.7 mm
- Body weight at weaning [4]: 224.8 kg
- body weight after farrowing [4]: 240.0 kg
- % backfat change [5]: −19.3%
- % weight change farrow - wean [5]: −4.8%
- Backfat at weaning [5]: 12.5 mm
- Body weight at weaning [5]: 227.5 kg
- body weight after farrowing [5]: 240.0 kg
- body weight at farrowing, net change (difference across the nitrate range) (across the nitrate range): 1.8 kg
